We go through one compound from ChEMBL document CHEMBL4616590, “Therapeutic significance of β-glucuronidase activity and its inhibitors: A review” (Eur J Med Chem, 2020).

The structures appear in SMILES notation.

The target in test [1] is T1, Beta-glucuronidase (Homo sapiens) (UniProt P08236).
T1 sequence (whole entry): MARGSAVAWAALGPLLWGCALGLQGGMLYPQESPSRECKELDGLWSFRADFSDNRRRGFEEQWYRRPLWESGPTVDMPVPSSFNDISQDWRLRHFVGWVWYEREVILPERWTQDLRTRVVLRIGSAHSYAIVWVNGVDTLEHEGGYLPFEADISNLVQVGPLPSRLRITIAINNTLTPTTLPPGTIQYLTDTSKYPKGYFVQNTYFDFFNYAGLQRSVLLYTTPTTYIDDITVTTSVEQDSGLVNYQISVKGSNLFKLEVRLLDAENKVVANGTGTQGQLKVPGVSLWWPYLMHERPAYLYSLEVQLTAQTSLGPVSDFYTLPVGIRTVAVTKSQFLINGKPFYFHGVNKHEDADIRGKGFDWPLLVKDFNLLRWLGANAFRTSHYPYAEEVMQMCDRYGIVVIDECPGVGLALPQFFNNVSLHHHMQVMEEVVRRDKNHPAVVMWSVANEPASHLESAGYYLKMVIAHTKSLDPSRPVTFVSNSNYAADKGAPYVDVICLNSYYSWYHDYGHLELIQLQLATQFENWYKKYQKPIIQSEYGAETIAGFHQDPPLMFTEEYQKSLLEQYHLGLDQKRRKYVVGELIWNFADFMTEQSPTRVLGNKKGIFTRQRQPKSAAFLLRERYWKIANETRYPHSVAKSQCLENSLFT
The test can be described thus: Inhibition of whole human gut bacterial beta-glucuronidase relative to control. To be noted: concentration not given here.

The nature of test [2]: Inhibition of bacterial beta-glucuronidase using p-nitrophenyl-beta-D-glucuronide as substrate after 1 hr. Details: species or system Bacteria.

For orientation: inhibition means the share of the control response that was lost under treatment. Read a low inhibition as a response near the control. The IC50 is the concentration that inhibits the measured activity by half. In test [1], `Clc1ccc2c(c1)C(N1CCNCC1)=Nc1ccccc1O2` [AMOXAPINE] displayed an inhibition of 7.3%. Further, the IC50 in test [2] was determined as 530 nM.
